Experimental data reported in the supplement of paper PMC8047044.
Some of the results follow. Repeats are few or missing, and single values can be far off.

What follows are compounds tested on Neuro-2a (assay: neurite formation score, plate-normalized to DMSO control mean 5.04 (score (0-8 scale)); higher = more or longer neurites). Conditions: 10 µM.
`O=C(Nc1cc(C(F)(F)F)cc(C(F)(F)F)c1)c1cc(Cl)ccc1O` showed a neurite formation score of 0.424.
In the case of `Cc1ccc(Nc2nccc(N(C)c3ccc4c(C)n(C)nc4c3)n2)cc1S(N)(=O)=O`, the neurite formation score is reported as 4.88.
`CCOc1cc(C(=O)N2CCC(N3CCN(C)CC3)CC2)ccc1Nc1ncc2c(n1)N(C1CCCC1)c1ccccc1C(=O)N2C` showed a neurite formation score of 2.41.
Compound `O=C1NCCc2[nH]c(-c3ccncc3)cc21` has a neurite formation score of 5.41.
Compound `Cc1nc(-c2cn3c(n2)-c2ccc(-c4cnn(C(C)(C)C(N)=O)c4)cc2OCC3)n(C(C)C)n1` has a neurite formation score of 2.43.
Work on `COc1ncc(-c2ccc3nccc(-c4ccnnc4)c3c2)cc1NS(=O)(=O)c1ccc(F)cc1F` yielded a neurite formation score of 1.09.
`Cc1cc(NC(=O)c2cccc(NC(=O)/C=C/CN(C)C)c2)ccc1Nc1nccc(-c2cccnc2)n1` was tested, and the neurite formation score was 3.41.
In the case of `Cc1c(Cn2c(C)nc3c(C(=O)O)cc(N4CCOCC4)cc32)cccc1C(F)(F)F`, the neurite formation score is reported as 4.86.
`CCc1cccc(CC)c1NC(=O)N1Cc2[nH]nc(NC(=O)c3ccc(N4CCN(C)CC4)cc3)c2C1` showed a neurite formation score of 0.0903.
Compound `CCCCCCCCCCCC(=O)OCC(CO)OC(=O)CCCCCCCCCCC` (centres undefined) [1,2-Dilauroyl-sn-glycerol] has a neurite formation score of 4.52.
`C[C@H](Nc1ncnc2nc[nH]c12)c1cc2cccc(Cl)c2c(=O)n1-c1ccccc1` was tested, and the neurite formation score was 3.54.
`Cc1cc(Nc2nc(N[C@@H](C)c3ncc(F)cn3)ncc2Cl)[nH]n1` was tested, and the neurite formation score was 0.0903.
For `N#CC(=C(/N)Sc1ccccc1N)/C(C#N)=C(\N)Sc1ccccc1N`, the neurite formation score was 4.21.
Work on `CC(C)(O)CC(=O)NCCn1ccc2ncnc(Nc3ccc(Oc4cccc(C(F)(F)F)c4)c(Cl)c3)c21` yielded a neurite formation score of 4.42.
